Test results published in paper PMC8436130.
Results are given in words; binding and its absence hold for the method and conditions named. Binding seen in cells or lysates may run through a third protein. A yes stands for co-enrichment or nearness to the bait. Other partners may have been found. For some of these results: A no says only that the protein was not detected with the bait.

Protein sequences, listed by entry. Tags and fused reporters are not part of them.
UniProt Q86WV6: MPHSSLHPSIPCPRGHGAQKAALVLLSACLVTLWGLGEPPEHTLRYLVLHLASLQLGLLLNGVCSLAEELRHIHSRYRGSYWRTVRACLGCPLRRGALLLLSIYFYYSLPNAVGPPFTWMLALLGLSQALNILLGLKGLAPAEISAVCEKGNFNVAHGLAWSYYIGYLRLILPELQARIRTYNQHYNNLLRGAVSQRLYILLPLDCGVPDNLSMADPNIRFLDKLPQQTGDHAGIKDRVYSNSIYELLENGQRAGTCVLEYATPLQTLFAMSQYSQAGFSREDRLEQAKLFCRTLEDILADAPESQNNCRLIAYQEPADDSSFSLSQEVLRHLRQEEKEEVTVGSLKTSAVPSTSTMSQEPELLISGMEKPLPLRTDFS

Key:
[1] = molecular target: STimulator of INterferon Genes (STING) fused to GFP (UniProt Q86WV6); test: affinity purification with mass spectrometry; nuclear envelopes isolated from HEK293T cells expressing STING-GFP, reversibly cross-linked with ortho-phenanthroline copper, resuspended in RIPA and sonicated, immunoprecipitated with GFP antibodies on Protein A-sepharose, released with 50 mM DTT, tandem mass spectrometry; mock-transfected cells as control
[2] = molecular target: STimulator of INterferon Genes (STING) fused to GFP, Q86WV6; test: as above; details: remark: other sources report otherwise

Binder | binding [1] | binding [2]
AATF (protein, UniProt Q9NY61 1-560) MAGPQPLALQLEQLLNPRPSEADPEADPEEATAARVIDRFDEGEDGEGDFLVVGSIRKLASASLLDTDKRYCGKTTSRKAWNEDHWEQTLPGSSDEEISDEEGSGDEDSEGLGLEEYDEDDLGAAEEQECGDHRESKKSRSHSAKTPGFSVQSISDFEKFTKGMDDLGSSEEEEDEESGMEEGDDAEDSQGESEEDRAGDRNSEDDGVVMTFSSVKVSEEVEKGRAVKNQIALWDQLLEGRIKLQKALLTTNQLPQPDVFPLFKDKGGPEFSSALKNSHKALKALLRSLVGLQEELLFQYPDTRYLVDGTKPNAGSEEISSEDDELVEEKKQQRRRVPAKRKLEMEDYPSFMAKRFADFTVYRNRTLQKWHDKTKLASGKLGKGFGAFERSILTQIDHILMDKERLLRRTQTKRSVYRVLGKPEPAAQPVPESLPGEPEILPQAPANAHLKDLDEEIFDDDDFYHQLLRELIERKTSSLDPNDQVAMGRQWLAIQKLRSKIHKKVDRKASKGRKLRFHVLSKLLSFMAPIDHTTMNDDARTELYRSLFGQLHPPDEGHGD | binds | 
DDX23, Q9BUQ8 1-820 (protein) MAGELADKKDRDASPSKEERKRSRTPDRERDRDRDRKSSPSKDRKRHRSRDRRRGGSRSRSRSRSKSAERERRHKERERDKERDRNKKDRDRDKDGHRRDKDRKRSSLSPGRGKDFKSRKDRDSKKDEEDEHGDKKPKAQPLSLEELLAKKKAEEEAEAKPKFLSKAEREAEALKRRQQEVEERQRMLEEERKKRKQFQDLGRKMLEDPQERERRERRERMERETNGNEDEEGRQKIREEKDKSKELHAIKERYLGGIKKRRRTRHLNDRKFVFEWDASEDTSIDYNPLYKERHQVQLLGRGFIAGIDLKQQKREQSRFYGDLMEKRRTLEEKEQEEARLRKLRKKEAKQRWDDRHWSQKKLDEMTDRDWRIFREDYSITTKGGKIPNPIRSWKDSSLPPHILEVIDKCGYKEPTPIQRQAIPIGLQNRDIIGVAETGSGKTAAFLIPLLVWITTLPKIDRIEESDQGPYAIILAPTRELAQQIEEETIKFGKPLGIRTVAVIGGISREDQGFRLRMGCEIVIATPGRLIDVLENRYLVLSRCTYVVLDEADRMIDMGFEPDVQKILEHMPVSNQKPDTDEAEDPEKMLANFESGKHKYRQTVMFTATMPPAVERLARSYLRRPAVVYIGSAGKPHERVEQKVFLMSESEKRKKLLAILEQGFDPPIIIFVNQKKGCDVLAKSLEKMGYNACTLHGGKGQEQREFALSNLKAGAKDILVATDVAGRGIDIQDVSMVVNYDMAKNIEDYIHRIGRTGRAGKSGVAITFLTKEDSAVFYELKQAILESPVSSCPPELANHPDAQHKPGTILTKKRREETIFA |  | binds
HELLS (protein, UniProt Q9NRZ9 1-838) MPAERPAGSGGSEAPAMVEQLDTAVITPAMLEEEEQLEAAGLERERKMLEKARMSWDRESTEIRYRRLQHLLEKSNIYSKFLLTKMEQQQLEEQKKKEKLERKKESLKVKKGKNSIDASEEKPVMRKKRGREDESYNISEVMSKEEILSVAKKNKKENEDENSSSTNLCVEDLQKNKDSNSIIKDRLSETVRQNTKFFFDPVRKCNGQPVPFQQPKHFTGGVMRWYQVEGMEWLRMLWENGINGILADEMGLGKTVQCIATIALMIQRGVPGPFLVCGPLSTLPNWMAEFKRFTPDIPTMLYHGTQEERQKLVRNIYKRKGTLQIHPVVITSFEIAMRDRNALQHCYWKYLIVDEGHRIKNMKCRLIRELKRFNADNKLLLTGTPLQNNLSELWSLLNFLLPDVFDDLKSFESWFDITSLSETAEDIIAKEREQNVLHMLHQILTPFLLRRLKSDVALEVPPKREVVVYAPLSKKQEIFYTAIVNRTIANMFGSSEKETIELSPTGRPKRRTRKSINYSKIDDFPNELEKLISQIQPEVDRERAVVEVNIPVESEVNLKLQNIMMLLRKCCNHPYLIEYPIDPVTQEFKIDEELVTNSGKFLILDRMLPELKKRGHKVLLFSQMTSMLDILMDYCHLRDFNFSRLDGSMSYSEREKNMHSFNTDPEVFIFLVSTRAGGLGINLTAADTVIIYDSDWNPQSDLQAQDRCHRIGQTKPVVVYRLVTANTIDQKIVERAAAKRKLEKLIIHKNHFKGGQSGLNLSKNFLDPKELMELLKSRDYEREIKGSREKVISDKDLELLLDRSDLIDQMNASGPIKEKMGIFKILENSEDSSPECLF | binds | 
TANK-binding kinase 1 (TBK1), Q9UHD2 1-729 (protein) MQSTSNHLWLLSDILGQGATANVFRGRHKKTGDLFAIKVFNNISFLRPVDVQMREFEVLKKLNHKNIVKLFAIEEETTTRHKVLIMEFCPCGSLYTVLEEPSNAYGLPESEFLIVLRDVVGGMNHLRENGIVHRDIKPGNIMRVIGEDGQSVYKLTDFGAARELEDDEQFVSLYGTEEYLHPDMYERAVLRKDHQKKYGATVDLWSIGVTFYHAATGSLPFRPFEGPRRNKEVMYKIITGKPSGAISGVQKAENGPIDWSGDMPVSCSLSRGLQVLLTPVLANILEADQEKCWGFDQFFAETSDILHRMVIHVFSLQQMTAHKIYIHSYNTATIFHELVYKQTKIISSNQELIYEGRRLVLEPGRLAQHFPKTTEENPIFVVSREPLNTIGLIYEKISLPKVHPRYDLDGDASMAKAITGVVCYACRIASTLLLYQELMRKGIRWLIELIKDDYNETVHKKTEVVITLDFCIRNIEKTVKVYEKLMKINLEAAELGEISDIHTKLLRLSSSQGTIETSLQDIDSRLSPGGSLADAWAHQEGTHPKDRNVEKLQVLLNCMTEIYYQFKKDKAERRLAYNEEQIHKFDKQKLYYHATKAMTHFTDECVKKYEAFLNKSEEWIRKMLHLRKQLLSLTNQCFDIEEEVSKYQEYTNELQETLPQKMFTASSGIKHTMTPIYPSSNTLVEMTLGMKKLKEEMEGVVKELAENNHILERFGSLTMDGGLRNVDCL |  | no binding
